# Measurements reported in PubChem BioAssay AID602196 (INSERM, 2012)
# Aim: 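Genes whose knock-down alters cisplatin killing of lung cancer cells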
# Cells: human A549 lung cancer cells
# Reagent: siRNA pair against human genes
# Timing: 48 h transfection before cisplatin; time from cisplatin to read-out not stated
# Conditions: cisplatin at a dose killing half of control-siRNA cells; exact dose and duration not given
# Measured: 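Cisplatin cell death as a shift from the 50% death seen with control siRNA; siRNAs toxic or growth-blocking alone scored 0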
# Scale: two-siRNA summed score (-2 to +2): higher = both siRNAs protect from cisplatin killing; -2 means both sensitise; mean protection from cisplatin (shift in death): higher = protection from cisplatin killing
# Active means: 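siRNAs harmful alone (LDH or WST-1) get 0; others get +1 for less and -1 for more cisplatin killing; genes are active when the two siRNAs give the same sign, summing to ±2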
# Calls: active = both siRNAs shift cisplatin killing the same way; inactive = no consistent shift, or siRNA harmful alone
# Shown is a random part of about 23,000 reagents tested. 455 of them (2%) count as active. 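Active includes both protection and sensitisation; some change values fall well beyond the stated -50 to +50 range.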 Not all columns of the deposit are shown. The record does not give: the amount of reagent.
target,two-siRNA summed score (-2 to +2),mean protection from cisplatin (shift in death) (%),call
E2F4 (E2F transcription factor 4),0,-2.9,inactive
LOC441066,0,9.1,inactive
DOK4 (docking protein 4),0,-12.1,inactive
LOC91664,1,20.7,inactive
PRDX2 (peroxiredoxin 2),-1,-7.2,inactive
ZFP62 (ZFP62 zinc finger protein),1,8.3,inactive
SEC61A1 (SEC61 translocon subunit alpha 1),1,15,inactive
CRB1 (crumbs cell polarity complex component 1),0,-4.7,inactive
"RARS2 (arginyl-tRNA synthetase 2, mitochondrial)",0,4.7,inactive
SLC35F1,1,-3.4,inactive
EPOR (erythropoietin receptor),1,11.9,inactive
KRT74 (keratin 74),0,2.9,inactive
MAGEB1 (MAGE family member B1),1,6.8,inactive
LOC440857,0,11.9,inactive
MRPL42 (mitochondrial ribosomal protein L42),1,10.8,inactive
KRT5 (keratin 5),1,25.3,inactive
PLA2G6 (phospholipase A2 group VI),0,3.9,inactive
MRPL46 (mitochondrial ribosomal protein L46),1,4.3,inactive
ZNF296 (zinc finger protein 296),0,18.6,inactive
OR2A25 (olfactory receptor family 2 subfamily A member 25),2,24.4,active
TWIST2 (twist family bHLH transcription factor 2),0,-1.7,inactive
MPP1 (MAGUK p55 scaffold protein 1),0,1.6,inactive
GPKOW (G-patch domain and KOW motifs),0,8.7,inactive
NTNG1 (netrin G1),2,15.6,active
DNAL1 (dynein axonemal light chain 1),0,2.9,inactive
CASP3 (caspase 3),0,19.6,inactive
LOC401911,0,16.6,inactive
TTYH2 (tweety family member 2),0,4.6,inactive
ME2 (malic enzyme 2),0,-0.3,inactive
GSK3B (glycogen synthase kinase 3 beta),0,0.6,inactive
"ALKBH3 (alkB homolog 3, alpha-ketoglutarate dependent dioxygenase)",1,17.6,inactive
PIK3CD,1,18.8,inactive
KIAA1217,0,10.6,inactive
DNAJB7 (DnaJ heat shock protein family (Hsp40) member B7),-1,-6.2,inactive
SUN5 (Sad1 and UNC84 domain containing 5),0,1.1,inactive
RUBCNL (rubicon like autophagy enhancer),0,-6.6,inactive
OR6X1 (olfactory receptor family 6 subfamily X member 1),0,8.3,inactive
TBC1D20 (TBC1 domain family member 20),0,0.5,inactive
AKAP14 (A-kinase anchoring protein 14),1,10.3,inactive

Look-ups from above:
KIAA1217, call = inactive
MRPL42 (mitochondrial ribosomal protein L42), two-siRNA summed score (-2 to +2) → 1
Entry for E2F4 (E2F transcription factor 4) under “call”: inactive
TTYH2 (tweety family member 2), mean protection from cisplatin (shift in death) (%) → 4.6
Entry for OR6X1 (olfactory receptor family 6 subfamily X member 1) under “mean protection from cisplatin (shift in death) (%)”: 8.3
MPP1 (MAGUK p55 scaffold protein 1), mean protection from cisplatin (shift in death) (%) = 1.6
